Data reported in US4774250A, “Composition and method for treating differentiated carcinoma or melanoma cells with thiapyrylium dyes” (Dana Farber Cancer Institute, priority 1987, dated 1988).
At least one read-out could not be matched to a standard name with certainty.

Test system: CV-1 (normal monkey kidney epithelial cells)
Assay: Clonogenic in vitro study, inhibition of cell colony formation, CV-1
Format: cell-based
Details: retest: different preparation or recrystallization
Text: As noted above, one of the advantages of the invention is that the thiapyryliums described herein selectively attack the cancer cells as opposed to normal cells. Although knowledge of the mechanism is not essential to the practice of the invention, it is believed this occurs through the preferential inhibition of ATP synthesis in the mitochondria of the cancer cells. Such selectivity is further shown in clonogenic in vitro studies carried out in conventional fashion. That is, cell cultures of CX-1 (human colon carcinoma) and CV-1 (normal monkey kidney epithelial cells) are prepared and treated at various concentrations, in the conventional manner, and the concentration of the dye that inhibits 50% of the cell colonies formation is denoted as IC50. This IC50 value is compared for both the CX-1 and CV-1. That is, the CV-1 value is divided by the value for CX-1. If the value is 10 μg/ml for CV-1, and […] for CX-1, then the dye is 10 times as effective in killing off the colon carcinoma cells, compared to the monkey epithelial cells. This is expressed as a selectivity "S" of 10. That is, in order to inhibit 50% of the normal cells, the drug requires ten times the concentration needed for inhibiting 50% of the cancer cells. […]

With `CN(C)c1ccc(-c2cc(-c3ccccc3)[s+]c(-c3ccccn3)c2)cc1` [T-2, 4-(4-dimethylaminophenyl)-2-phenyl-6-(2-pyridyl)thiapyrylium chloride] the “CV-1 (normal cells IC50 value)” value was 0.3 µg/mL.
